{"source": "PubChem BioAssay AID493235", "about": "(Broad Institute, 2011)", "note": "Inconclusive results, whose numbers are uncertain, are shown with a selection of clear calls. Calls of active or inactive are those of the source.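 Rule for the calls: active = fitted dose curve passes 500% activation at or below the top valid tested dose; inconclusive = no clear call, values can overlap the other calls; inactive = the rest, opposite-direction activity included.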"}
{"assay": "HIF pathway activators in HRE-luciferase reporter, dose response, cell-based, U2OS, luminescence, dry powder, set 7 (AID 493235)", "settings": "at 38 µM (top of the series)", "summary_of_the_method": "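Test system – human U2OS osteosarcoma cells stably expressing 3×HRE-driven luciferase reporter · Quantity – 6,000 cells/well · Medium – DMEM without phenol red, with 10% fetal bovine serum · Compound – 8 concentrations, 3-fold steps · Times – cells grown 24 h before dosing, compound exposure 24 h at 37 °C · Detection – luminescence with Steady-Glo luciferase reagent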"}
{"compound": "O=C(NC1Cc2ccccc2C1)c1cc(-c2ccccc2)on1", "activation": "inconclusive: 118%"}
{"compound": "O=C(c1cc(-c2ccccc2)on1)N1CCC(CO)CC1", "activation": "inconclusive: -3.04%"}
{"compound": "O=C(NCCN1CCCCC1)c1cc(-c2ccccc2)on1", "activation": "inconclusive: 54.4%"}
{"compound": "Oc1ccc(CNC2CCc3ccccc32)c2cccnc12", "note": "(stereo unspecified)", "activation": "inconclusive: 263%"}
{"compound": "O=C(c1cc(-c2ccccc2)on1)N1CCc2cccnc21", "activation": "inconclusive: 24.9%"}
{"compound": "O=C(Nc1ncc2ccccc2n1)c1cc(-c2ccccc2)on1", "activation": "inactive: 104%"}
{"compound": "Cc1ccccc1CNC(=O)c1cc(-c2ccccc2)on1", "activation": "inactive: 22.9%"}
{"compound": "O=C(Nc1nc2ccccc2s1)c1cc(-c2ccccc2)on1", "activation": "inactive: 4.65%"}
{"compound": "O=C(NCC1CCCCC1)c1cc(-c2ccccc2)on1", "activation": "inconclusive: 170%"}
{"compound": "Cc1ccc(CNC(=O)c2cc(-c3ccccc3)on2)cc1", "activation": "inconclusive: 12.9%"}
{"compound": "O=C(Nc1ccc2ccccc2n1)c1cc(-c2ccccc2)on1", "activation": "inactive: 12.3%"}
